From article PMC11153594 come the findings set out here.

These are yes or no findings as the source states them, for the method shown. Binding seen in cells or lysates may run through a third protein. Some binding calls cover weakened binding; strength is not graded here. Sequences can lack the tags named with a protein.

In assay [1] the target is KREMEN1 (Kringle containing transmembrane protein 1) fused at the C-terminus to SmBiT or LgBiT (UniProt Q96MU8). Put plainly: split reporter; HEK293T cells transfected for 48 h with KREMEN1-SmBiT and KREMEN1-LgBiT plasmids (200 ng/well); luminescence in living cells (Nano-Glo Live Cell Assay System), normalized to cell viability.
Assay [2] has the same target. In words: split reporter; HS-ES-2R cells stably expressing KREMEN1-SmBiT and KREMEN1-LgBiT; luminescence in living cells, normalized to cell viability; cells untreated, treated with 0.2 or 0.4 uM CP-C27 for 24 h, transfected with siKREMEN2, or transduced with a KREMEN2 cDNA vector.

B1: KREMEN1 (Kringle containing transmembrane protein 1) fused at the C-terminus to SmBiT or LgBiT (protein, UniProt Q96MU8-2 20-492)
chain: ARPAPSPGLGPGPECFTANGADYRGTQNWTALQGGKPCLFWNETFQHPYNTLKYPNGEGGLGEHNYCRNPDGDVSPWCYVAEHEDGVYWKYCEIPACQMPGNLGCYKDHGNPPPLTGTSKTSNKLTIQTCISFCRSQRFKFAGMESGYACFCGNNPDYWKYGEAASTECNSVCFGDHTQPCGGDGRIILFDTLVGACGGNYSAMSSVVYSPDFPDTYATGRVCYWTIRVPGASHIHFSFPLFDIRDSADMVELLDGYTHRVLARFHGRSRPPLSFNVSLDFVILYFFSDRINQAQGFAVLYQAVKEELPQERPAVNQTVAEVITEQANLSVSAARSSKVLYVITTSPSHPPQTVPGSNSWAPPMGAGSHRVEGWTVYGLATLLILTVTAIVAKILLHVTFKSHRVPASGDLRDCHQPGTSGEIWSIFYKPSTSISIFKKKLKGQSQQDDRNPLAIQDSEVTSLIWSQGQPRSI
Consider B1, for which the binding entry in assay [1] and in assay [2] was “binds” in each case.
